Data on 18 substances can be found in patent publication US10407468 (dated 2019).

Where no end group is shown, it is not given here. [ ]: non-standard residue; d: D form. The star is where a group is joined. Phe(4-tBu) = CC(C)(C)c1ccc(C[C@H](N)C(=O)O)cc1; Pbf = Cc1c(C)c(S(=O)(=O)*)c(C)c2c1OC(C)(C)C2; Fmoc = O=C(OCC1c2ccccc2-c2ccccc21)*; NMeR = CN[C@@H](CCCNC(=N)N)C(=O)O; β3hE = N[C@@H](CCC(=O)O)CC(=O)O; Pen = CC(C)(S)[C@H](N)C(=O)O; Cbz = O=C(OCc1ccccc1)*; Boc = CC(C)(C)OC(=O)*; OtBu = CC(C)(C)O*; Acm = CC(=O)NC*; tBu = CC(C)(C)*

The data set is described as follows: general procedure: Fmoc solid-phase peptide synthesis; tricyclic amide linker resin (Ramage Resin).
[1] abbreviates: late stage modification step, HPLC (AUC).
The mark [2] stands for this setting: late stage modification step, HPLC (AUC), run 1.
The mark [3] stands for this setting: late stage modification step, HPLC (AUC), run 2.
Where [4] appears, read: late stage modification step, run 1.
[5] abbreviates: late stage modification step, run 2.

Where the note is “late stage modification step”, H-[NMeR](Pbf)S(tBu)D(OtBu)T(tBu)L-OH displayed a step yield of 87.7%. Moreover, under setting [1], the “crude HPLC purity” value is recorded as 96.3%.

In turn, “Cbz-S(tBu)D(OtBu)T(tBu)L[Pen](Acm)[Phe(4-tBu)][β3hE](OtBu)[dK](Boc)-NH2” came in with a step yield (coupling step) of 99.7%. Moreover, the “crude HPLC purity” value (coupling step, HPLC (AUC)) is 89.5%.

For “Ac-Pen(Acm)-N(Me)-Arg(pbf)-Ser(^tBu)-Asp(O^tBu)-Thr(^tBu)-Leu-OH”, the step yield (late stage modification step) came out at 78%.

Take “Cbz-S(tBu)D(OtBu)T(tBu)L-OMe (SEQ ID NO: 77)”: the step yield was found to be 37.33% (coupling step, run 1) and 92% (coupling step, run 2).

Regarding “Fmoc-Pen(Acm)-N(Me)-Arg(pbf)-Ser(^tBu)-Asp(O^tBu)-Thr(^tBu)-Leu-OMe (SEQ ID NO:3)”, the “crude purity (method not given)” value (coupling step, HPLC (AUC)) came to 89.8%. Also, the step yield came to 94.6% (coupling step, run 1) and 84% (coupling step, run 2).

Regarding “Ac-Pen(Acm)-N(Me)-Arg(pbf)-Ser(^tBu)-Asp(O^tBu)-Thr(^tBu)-Leu-Pen(Acm)-Phe(4-^tBu)-β-homoGlu(O^tBu)-(D)-Lys(Boc)-NH2”, the step yield by setting is: (coupling step) 85%; under setting [4], 82.3%; under setting [5], 92.6%. Also, the “crude HPLC purity” value runs as follows: under setting [2], 87.2%; under setting [3], 77.2%.

In the case of “Fmoc-[Pen](Acm)[Phe(4-tBu)][β3hE](OtBu)[dK](Boc)-NH2 (SEQ ID NO:4)”, the “crude HPLC purity” value reads like this: (coupling step, HPLC (AUC), run 1) 95.2%; (coupling step, HPLC (AUC), run 2) 93.9%. This substance also showed a step yield (coupling step, run 1) of 90.6% and a step yield (coupling step, run 2) of 98.32%.

As to “H-S(tBu)D(OtBu)T(tBu)L[Pen](Acm)[Phe(4-tBu)][β3hE](OtBu)[dK](Boc)-NH2”, the step yield (late stage modification step) was 87%. In addition, the “crude HPLC purity” value under setting [1] was determined as 82.7%.

“Z-Ser(^tBu)-Asp(O^tBu)-Thr(^tBu)-Leu-OMe”: the step yield is, setting by setting: (coupling step) 97.9%; (purification step) 89.3%. For the same substance, where the note is “coupling step, HPLC (AUC)”, the “crude HPLC purity” value was found to be 92.6%. The “final HPLC purity” value (purification step, HPLC (AUC)) is recorded as 99.1%.

As for “Ac-Pen(^ΨMe,MePro)-N-Me-Arg(Pbf)-Ser(^tBu)-Asp(O^tBu)-Thr(^tBu)-Leu-OMe (SEQ ID NO: 3)”, where the note is “coupling step”, the step yield is 66.6%.

For the substance “Cbz-N(Me)-Arg(Pbf)-Ser(^tBu)-Asp(O^tBu)-Thr(^tBu)-Leu-OMe”, where the note is “coupling step”, the step yield stood at 91%.

“Ac-[Pen][NMeR]SDTL[Pen][Phe(4-tBu)][β3hE][dK] (cysteine pairing not given here)”: the “final HPLC purity” value (cyclisation step, AUC) was found to be 94.09% and the “final HPLC purity” value (oxidative folding step, HPLC (AUC)) is given as “around 97% purity”. Also, the “crude HPLC purity” value was determined as 59.92% (cyclisation step, AUC, run 1); 40.10% (cyclisation step, AUC, run 2); 60.3% under setting [2]; 56.2% under setting [3]; 67.05% (whole synthesis, AUC, run 1); 51.23% (whole synthesis, AUC, run 2). Moreover, the step yield (late stage modification step) is reported as 104%. Where the note is “oxidative folding step, total weight of purified peptide obtained/total weight of crude peptide processed”, the oxidative folding yield was 28.3%.

Turning to “Cbz-N(Me)-Arg(Pbf)-Ser(^tBu)-Asp(O^tBu)-Thr(^tBu)-Leu-OMe (SEQ ID NO:5)”, the step yield is, setting by setting: (coupling step, run 1) 34.28%; (coupling step, run 2) 91%.

As for “H-S(tBu)D(OtBu)T(tBu)L-OMe (SEQ ID NO: 77)”, the step yield was 87.33% under setting [4] and 95% under setting [5].

On to Z-Ser(^tBu)-Asp(O^tBu)-Thr(^tBu)-Leu-OH, for which the step yield (late stage modification step) amounted to 99.2%. Further, under setting [1], the “crude HPLC purity” value is recorded as 91.1%.

As to “H-[Pen](Acm)[Phe(4-tBu)][β3hE](OtBu)[dK](Boc)-NH2 (SEQ ID NO:4)”, the “final HPLC purity” value under setting [1] amounted to 94.3%. Besides, the “crude HPLC purity” value runs as follows: under setting [2], 93.3%; under setting [3], 96.2%. In addition, the step yield by setting is: under setting [4], 55.5%; under setting [5], 77.3%.

Take “H-N-Me-Arg(Pbf)-Ser(^tBu)-Asp(O^tBu)-Thr(^tBu)-Leu-Pen(Acm)-Phe(4-^tBu)-β-homoGlu(O^tBu)-D-Lys(Boc)-NH2”: the “crude HPLC purity” value (coupling step, HPLC (AUC)) was 90%.

Substance “H-(N)Me-Arg(Pbf)-Ser(^tBu)-Asp(O^tBu)-Thr(^tBu)-Leu-OMe (SEQ ID NO:5)” yielded a step yield under setting [4] of 94% and a step yield under setting [5] of 95%.
